# In all, about 1,400 compounds went through this assay and about 30 (2%) were called active. About 15% were inconclusive and are not listed. The call rests on the fitted dose curve; in most records, active means well fitted inhibition curve with a large enough effect; inconclusive means small, poorly fitted or top-dose-only effect; inactive means flat fitted curve, though single readings scatter. Some of the results follow.
# Test: Firefly Luciferase Counterscreen for Inhibitors of ATXN expression
# Details: luminescence; series mostly up to 57.5 µM; activity change, negative = inhibition: at the top concentration
# Procedure, shortened: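 Recombinant firefly luciferase at 10 nM final in 50 mM Tris pH 7.5, 10 mM MgCl2, 0.05% BSA, 0.01% Tween20 with substrate; compounds up to 57 uM final, 10 min room temperature, end-point luminescence. Buffer-only wells define 100% inhibition.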
# On the % scale 0 is the no-effect control and ±100 the full control effect; potency means the concentration at half of the fitted maximal effect.
SMILES,"activity change, negative = inhibition",Potency
O=C(NC(c1ccc(Cl)cc1)c1cc(Cl)c2cccnc2c1O)c1cccnc1 (stereo not given),inactive: -2.31%,–
COc1ccc(O)c(/C=N/NC(=O)CCC(=O)Nc2cccc(C)c2)c1,inactive: -5.19%,–
Cc1c(N=C2N=C(NC(=O)Nc3ccc(Cl)cc3)c3ccccc32)c(=O)n(-c2ccccc2)n1C,inactive: -0.451%,–
Cc1cccc(Nc2c3c(nc4ccccc24)CCC3)c1,inactive: -0.971%,–
Cc1cc(N/N=C/c2ccc(O)cc2O)nc(-n2nc(C)cc2C)n1,inactive: -6.93%,–
Cc1ccc(C2CC(=O)Nc3c2ccc2ccccc32)cc1[N+](=O)[O-] (stereo not given),inactive: -4.69%,–
C[n+]1c2cc(N)ccc2cc2ccc(N)cc21,–,inactive
CC(=O)NC(=C(Cl)Cl)S(=O)(=O)c1ccccc1,inactive: 1.35%,–
COc1cc2c(cc1OC)C(C)N(C(=O)c1cc3c(s1)-c1ccccc1OC3)CC2 (stereo not given),inactive: -5.95%,–
CN(C)CCn1c2ccccc2c2nc3ccc([N+](=O)[O-])cc3cc21,inactive: -5.41%,–
O=C(NC(c1ccccc1)c1ccc2ccccc2n1)C1CCN(CCOc2ccc(Cl)cc2Cl)CC1 (stereo not given),inactive: -10.2%,–
CN(C)CCNC(=O)c1cccc(-c2cnc3c(NC=O)cc(-c4cccs4)cn23)c1,inactive: -5.21%,–
Cc1ccc2nc3cc([N+](=O)[O-])cc([N+](=O)[O-])c3cc2c1,inactive: -5.55%,–
COc1ccccc1-c1cc2nc(-c3ccccc3)cc(N3CCN(C(=O)c4ccco4)CC3)n2n1,inactive: -6.68%,–
O=C(N/N=C(\Cc1ncc[nH]1)c1ccccc1)c1ccncc1,inactive: 2.33%,–
Cn1nnnc1Sc1ncnc2scc(-c3ccc[nH]3)c12,inactive: -5.81%,–
Cn1c(/C=C/c2ccc(Cl)cc2)c([N+](=O)[O-])c(=O)n(C)c1=O,inactive: -2.66%,–
Cc1cccc(N2CCN(C(=O)CC(NC(=O)c3ccccc3Cl)c3ccccc3)CC2)c1C (stereo not given),inactive: 0.399%,–
CCCNC(=O)c1ccc2c(=O)c(O)c(-c3ccc(C)cc3)[nH]c2c1,inactive: 1.21%,–
CCCC(=O)NC(c1ccc(Cl)cc1Cl)c1ccc2cccnc2c1O (stereo not given),inactive: 3.8%,–
COc1ccc(CSCC(=O)N/N=C/c2ccccc2O)cc1,inactive: -4.55%,–
COc1ccc(C(=O)c2c(C)c3ccccc3n2CC(O)CNC(C)C)cc1 (stereo not given),inactive: 1.19%,–
CCc1ccc(OCCNc2cc(N3CCNC(C)C3)ccc2[N+](=O)[O-])cc1 (stereo not given),inactive: -13.4%,–
Cc1cc(C)c2nc(N(CCCN(C)C)C(=O)c3ccc4c(c3)OCCO4)sc2c1,inactive: 0.966%,–
NC(Cc1ccc(F)cc1)c1csc(NC(=O)NC(c2ccccc2)c2ccccc2)n1 (stereo not given),inactive: 2.44%,–

SMILES,"activity change, negative = inhibition",Potency
OC[C@@H]1[C@@H](c2ccc(F)cc2)C(c2ccccc2)=NN1c1ccccc1,inactive: -0.288%,–
Cc1nc(SCC(=O)Nc2ccc(S(=O)(=O)N3CCOCC3)cc2)c2c(C)c(C)sc2n1,inactive: -2.48%,–
N#CCc1nc2ccccc2c(=O)[nH]1,inactive: -4.59%,–
COc1ccc(C(=O)c2sc(Nc3ccccc3)nc2N)cc1OC,inactive: -16.4%,–
Cn1c(N)c(C(=O)Nc2ccc(-c3ccccc3)cc2)sc1=S,inactive: -17.3%,–
O=C(NC1CCN(Cc2ccccc2)CC1)c1cccc(S(=O)(=O)Nc2ccc(SC(F)F)cc2)c1,inactive: -18.8%,–
CC(C)[C@@H]1CC[C@@H](C)C[C@H]1OC(=O)C[n+]1cc(-c2ccc(Cl)cc2)n2c1CCCCC2,inactive: 3.57%,–
Cc1cc(/C=N/n2c(COc3ccccc3)nc3ccccc3c2=O)c(O)c([N+](=O)[O-])c1,–,active: 15.8 µM
COc1ccc2c(c1)[nH]c1c(=O)n(/N=C/C3C(C)C=C(C)CC3C)c(=O)[nH]c12 (stereo not given),inactive: 2.14%,–
NNC(=O)c1nc(-c2ccccc2)cc(-c2ccccc2)n1,inactive: -10.1%,–
COc1ccc(CCNc2ncnc3c2[nH]c2cc(OC)c(OC)cc23)cc1OC,inactive: -19.6%,–
Cn1cc(/C=C/c2cc[n+](C)cc2)c2cc(F)ccc21,inactive: -0.972%,–
Cc1ccc(C(=O)N(C)CC(=O)Nc2ccc(Cl)c(C(F)(F)F)c2)cc1S(=O)(=O)N1CCCCC1,inactive: -1.27%,–
COc1ccc(CCNC(=O)c2cc(-c3cc(C)cc(C)c3O)n[nH]2)cc1OC,inactive: -15.5%,–
Cc1cccc(N2CCN(S(=O)(=O)c3ccc4c(c3)C(C)(C)C(=O)N4C)CC2)c1C,inactive: 1.85%,–
CCOc1ccc(Nc2c3ccccc3nc3ccccc23)cc1,inactive: -5.74%,–
NC(COCc1ccccc1)c1csc(Nc2ccc(C(F)(F)F)cn2)n1 (stereo not given),inactive: -1.71%,–
Cc1ccc(/C=C2/SC(=S)N(CCCC(=O)Nc3cc([N+](=O)[O-])ccc3O)C2=O)cc1,inactive: -19.1%,–
CCOC(=O)N(C)c1c(CC)nc2c(OCc3ccccc3C)cccn12,inactive: -0.725%,–
Cc1c(C(=O)NCc2ccc(F)cc2)sc(=O)n1Cc1ccc(Cl)c(Cl)c1,inactive: -1.09%,–
CCOc1cc([C@@H]2C[C@H]3CN(c4ccccc4)C(=O)[C@]34CCCN24)ccc1OC,inactive: -1.04%,–
COc1cc([N+](=O)[O-])cc(/C=N/NC(=O)c2ccc(NC(=O)c3ccc(C)cc3)cc2)c1O,inactive: -2.91%,–
CCCCN(C=O)c1c(CC)nc2ccc(C(=O)Nc3cc(-c4ccccc4)ccc3OC)cn12,inactive: -1.65%,–
CN(Cc1cnc2nc(N)nc(N)c2n1)c1ccc(C(=O)NC(CCC(=O)O)C(=O)O)c2ccccc12 (stereo not given),inactive: -9.04%,–
Cc1ccc(Nc2c(-c3ccccn3)nc3cc(C)ccn23)cc1,inactive: -11.5%,–

SMILES,"activity change, negative = inhibition",Potency
Cc1[nH]c2ccccc2c1C1=NNC(=Nc2ccc(F)cc2)SC1,inactive: -1.37%,–
CCCc1cc(=O)[nH]c(-n2[nH]c3c(c2=O)CCCC3)n1,inactive: -3.31%,–
COc1ccnc(Oc2ccc(F)cc2)c1C(=O)N/C=N/OCc1ccc(Cl)cc1Cl,inactive: -3.68%,–
Oc1c(C(Nc2ccccn2)c2cccnc2)cc(Cl)c2cccnc12 (stereo not given),inactive: -17.9%,–
O=C(N/N=C/c1ccc(O)cc1O)c1ccc(CN2C(=O)c3cccc4cccc2c34)cc1,inactive: -3.52%,–
CCCCNC(=O)C1(C)CCCCN1Cc1ccccc1-c1ccccc1 (stereo not given),inactive: -2.26%,–
NC(Cc1ccccc1)c1csc(Nc2nncc3ccccc23)n1 (stereo not given),inactive: -3.51%,–
COc1ccc(CC(=O)Nc2nc(-c3ccc(F)c(F)c3)cs2)cc1OC,inactive: -5.08%,–
COc1ccc(C(NC(C)=O)c2cc(Cl)c3cccnc3c2O)cc1OC (stereo not given),inactive: -18.1%,–
CC1(C)Cc2c(c(N3CCOCC3)nc3sc4c(NN)ncnc4c23)CS1,inactive: 4.74%,–
FC(F)(F)c1cc(-c2ccccn2)nc2cc(-c3ccccc3)nn12,inactive: 1.02%,–
CCOC(=O)c1cnc(-n2nc(C)cc2C)nc1NNc1cc(C)nc(-c2ccccc2)n1,inactive: 0.0162%,–
CC(Oc1ccc(Cl)cc1)C(=O)NNC(=S)NC(=O)c1ccco1 (stereo not given),inactive: -17.1%,–
Cc1cccc(OCCSc2nc3ncnc(N)c3[nH]2)c1,inactive: 3.02%,–
CC(Sc1nnc2c(n1)[nH]c1ccccc12)C(=O)N(C)C1CCCCC1 (stereo not given),inactive: -10.2%,–
Nc1cccc2nc3ccccc3cc12,inactive: -4.32%,–
Clc1ccc(-c2cc(C3CCNCC3)[nH]n2)c(Cl)c1,inactive: -10.2%,–
Cc1ccc(NC(=O)c2ccc(-c3nn(C)c(=O)c4ccccc34)cc2)cc1,inactive: -1.05%,–
Cc1ccc(C)c(S(=O)(=O)N2CCN(Cc3ccc(O)c4ncccc34)CC2)c1,inactive: 0.471%,–
Cc1nnc(-c2ccccc2)c(=O)n1/N=C/c1c(O)ccc2ccccc12,inactive: -19.2%,–
C=CCc1cccc(/C=N/NC(=O)CCC(=O)Nc2ccc(C)cc2)c1O,inactive: -1.11%,–
Cc1ccc(NC(=O)COc2ccc(/C=C3/SC(=Nc4ccccc4)N(Cc4cccnc4)C3=O)cc2)cc1,inactive: 2.57%,–
Cc1ccc(N2CC(C(=O)Nc3nccs3)CC2=O)cc1Cl (stereo not given),inactive: -2.52%,–
CC(C)(C)c1cc(C(=O)N/N=C/c2ccc([N+](=O)[O-])s2)n[nH]1,inactive: 2%,–
CCCCCCn1c2c(c(=N)c3c1CCC3)CCC2,inactive: 3.98%,–

# For convenience, some entries already given.
SMILES,"activity change, negative = inhibition",Potency
C=CCc1cccc(/C=N/NC(=O)CCC(=O)Nc2ccc(C)cc2)c1O,inactive: -1.11%,–
Cc1ccc(NC(=O)COc2ccc(/C=C3/SC(=Nc4ccccc4)N(Cc4cccnc4)C3=O)cc2)cc1,inactive: 2.57%,–
Cc1ccc(N2CC(C(=O)Nc3nccs3)CC2=O)cc1Cl (stereo not given),inactive: -2.52%,–
CC(C)(C)c1cc(C(=O)N/N=C/c2ccc([N+](=O)[O-])s2)n[nH]1,inactive: 2%,–

# (next part)

SMILES,"activity change, negative = inhibition",Potency
COc1ccc(OC)c(/C=C/C(=O)N2C(=O)c3cccc(N)c3C2=O)c1,inactive: -5.92%,–
CC1(C(=O)NCc2cccc(C(F)(F)F)c2)CCN1Cc1ccc(-c2ccccc2)o1 (stereo not given),inactive: -4.91%,–
COc1cc(/C=C/C(=O)c2ccc(C)c([N+](=O)[O-])c2)cc(OC)c1O,inactive: -5.57%,–
O=C(c1ccc(F)cc1F)C1CCN(c2ccc([N+](=O)[O-])cn2)CC1,inactive: 1.01%,–
CN1CCC2(CC1)N=C(c1ccc(F)cc1)C(=S)N2C(=O)c1ccc(C(C)(C)C)cc1,inactive: -16.8%,–
O=C(c1ccco1)N1CCN(c2ccnc3cc(Cl)ccc23)CC1,inactive: -13.2%,–
CCCCOc1ccccc1NC(=O)Cn1c(-c2nonc2N)nc2ccccc21,inactive: 22.6%,–
[O-][n+]1c2ccccc2cc2ccccc21,inactive: -10.2%,–
Cc1cccc(CN2C(=O)/C(=C\c3ccc(C(=O)NCCN4CCOCC4)cc3)Sc3ccccc32)c1,inactive: -8.78%,–
Cc1ccc2cc(C#N)c(N3CCN(C(=O)c4ccccc4)CC3)nc2c1,inactive: -2.49%,–
CC1(C)Cc2c(sc(NC(=O)c3ccc(C(=O)c4ccccc4)cc3)c2C(N)=O)C(C)(C)N1,inactive: -0.284%,–
CC(=O)c1c(C)oc2ccc(N(C(C)=O)S(=O)(=O)c3cccc4cccnc34)cc12,inactive: -2.27%,–
S=C(NCc1cccnc1)Nc1ccc(Oc2ccc(Cl)cc2)cc1,inactive: -0.796%,–
Cc1ccc(C)c(OCCCC(=O)Nc2nccs2)c1,inactive: -2.91%,–
O=[N+]([O-])c1cc(CN2CCN(c3ccccc3)CC2)c(O)c2ncccc12,inactive: -6.1%,–
COc1cccc(/C=N/Nc2ncc(C(F)(F)F)cc2Cl)c1O,inactive: -7.18%,–
Cc1noc2ncnc(N3CCN(c4cccc(Cl)c4)CC3)c12,inactive: 2.97%,–
Cn1cc(C(=O)c2ccc(Cl)cc2Cl)cc1C(=O)N/N=C(\N)COc1ccc(Cl)cc1,inactive: -0.139%,–
Cc1sc2nc(CN3CCCC3)nc(N3CCC(C(N)=O)CC3)c2c1C,inactive: -0.83%,–
O=C(c1cccc(Cl)c1)c1nn(-c2ccccc2)c(=O)cc1C(F)(F)F,inactive: -3.02%,–
CC(C)C1Cc2c(sc3[nH]c(=S)n(Cc4ccccc4)c(=O)c23)CO1 (stereo not given),inactive: -14.2%,–
NS(=O)(=O)c1ccc(CCNC(=O)c2cc(-c3ccccn3)nc3ccc(Br)cc23)cc1,inactive: 1.91%,–
CCOC(=O)c1ccc(NC(=O)C2CCCN(S(=O)(=O)c3ccc(F)cc3)C2)cc1 (stereo not given),inactive: -0.445%,–
CCN(CC)S(=O)(=O)c1ccc(N/N=C/c2ccc(O)cc2O)nc1,inactive: 3.3%,–
Cc1ccc(OCCCC(=O)NNC(=O)c2ccccn2)cc1,inactive: -1.95%,–
